# Reference: the supplement of paper PMC4604168 (melanoma cell lines)
# The other results are listed elsewhere or left out. Many values rest on one well or one pass, so single values are uncertain.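 The apoptosis fraction was the count of cleaved-PARP antibody-stained nuclei relative to all DNA-stained nuclei, imaged in 1,536-well plates. Screening doses were set so most cells survived, and baseline and induced cleaved-PARP levels vary greatly across cell lines.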
# Tests used:
# Assay in all cases: cleaved PARP positive nuclei fraction relative to DMSO control; melanoma cells; higher = more apoptosis
# Conditions in all cases: library dose: low library concentration; 72 h
# [1] = tested on: MZ2-MEL
# [2] = tested on: MeWo
# [3] = tested on: RPMI7951
# [4] = tested on: RVH-421
# [5] = tested on: SkMel28
# [6] = tested on: SkMel30
# [7] = tested on: SkMel5
# [8] = tested on: UACC257
# [9] = tested on: UACC62
# [10] = tested on: WM115
# [11] = tested on: WM1716
# [12] = tested on: WM1745
# [13] = tested on: WM3526
# [14] = tested on: WM3619
# [15] = tested on: WM451Lu
Compound,cleaved PARP positive nuclei fraction [1] [%],cleaved PARP positive nuclei fraction [2] [%],cleaved PARP positive nuclei fraction [3] [%],cleaved PARP positive nuclei fraction [4] [%],cleaved PARP positive nuclei fraction [5] [%],cleaved PARP positive nuclei fraction [6] [%],cleaved PARP positive nuclei fraction [7] [%],cleaved PARP positive nuclei fraction [8] [%],cleaved PARP positive nuclei fraction [9] [%],cleaved PARP positive nuclei fraction [10] [%],cleaved PARP positive nuclei fraction [11] [%],cleaved PARP positive nuclei fraction [12] [%],cleaved PARP positive nuclei fraction [13] [%],cleaved PARP positive nuclei fraction [14] [%],cleaved PARP positive nuclei fraction [15] [%]
"C[C@@H]1CCN(C(=O)CC#N)C[C@@H]1N(C)c1ncnc2[nH]ccc12 + COc1cc2ncnc(Nc3ccc(Oc4ccccc4)cc3)c2cc1OC [SrcI1] (first compound 1 µM, partner dose 2 µM)",93.1,49.2,168,100,192,24.3,119,75.1,37.7,61.9,109,116,52.6,73.6,109
"C=CCn1c(=O)c2cnc(Nc3ccc(N4CCN(C)CC4)cc3)nc2n1-c1cccc(C(C)(C)O)n1 + CCN(CC)CCCCNc1ncc2cc(-c3cc(OC)cc(OC)c3)c(NC(=O)NC(C)(C)C)nc2n1 [PD173074] (first compound 0.02 µM, partner dose 0.1 µM)",30,27.3,163,47.2,231,67.6,93.5,78.9,88.5,49.4,100,133,95.2,138,94.9
"NC(=O)Nc1cc(-c2cccc(F)c2)sc1C(=O)N[C@H]1CCCNC1 + CC(C)CCN1c2nc(Nc3cc(F)c(O)c(F)c3)ncc2N(C)C(=O)C1C [BID1870] (first compound 0.02 µM, partner dose 0.2 µM)",82.5,54,45.1,59.9,133,51.4,145,90.9,60.1,191,199,105,90.8,182,91
"COc1cc(Nc2ncc(F)c(Nc3ccc4c(n3)NC(=O)C(C)(C)O4)n2)cc(OC)c1OC [Tamatinib] + CCCCCCCCCCCC1=C(O)C(=O)C=C(O)C1=O [Embelin] (first compound 0.4 µM, partner dose 1.2 µM)",139,45.6,58.8,97.4,64.7,105,29.1,74.3,43.2,77.4,95.2,127,56.5,86,57
"Cc1cc(N2CCOCC2)cc2[nH]c(-c3c(NC[C@@H](O)c4cccc(Cl)c4)cc[nH]c3=O)nc12 + COc1cc(N2CCC(N3CCN(C)CC3)CC2)ccc1Nc1ncc(Cl)c(Nc2ccccc2S(=O)(=O)C(C)C)n1 [NVP-TAE684] (first compound 0.2 µM, partner dose 0.08 µM)",243,146,92.8,59.3,136,42,100,99,70.6,93.7,47,286,79.7,86.8,91.2
"Cc1nc(Nc2ncc(C(=O)Nc3c(C)cccc3Cl)s2)cc(N2CCN(CCO)CC2)n1 [dasatanib] + Cc1cc([N+](=O)[O-])ccc1NS(=O)(=O)c1cc(Cl)ccc1Cl [FH535] (first compound 0.004 µM, partner dose 1 µM)",87.8,67.3,243,140,163,52,79.1,274,163,404,196,146,145,93.9,72.1
"C[C@@H]1CCN(C(=O)CC#N)C[C@@H]1N(C)c1ncnc2[nH]ccc12 + O=C(Nc1ccccc1)c1cc([N+](=O)[O-])ccc1Cl [GW9662] (first compound 1 µM, partner dose 2 µM)",169,34.3,40.4,114,84.9,150,39.3,144,48.5,33.9,69.1,93,31.2,83.4,33.5
"Nc1cccc2c1CN(C1CCC(=O)NC1=O)C2=O (stereo not given) [lenalidomide] + N#Cc1c(O)c2c(-c3ccc(-c4ccccc4O)cc3)csc2[nH]c1=O [A769662] (first compound 1 µM, partner dose 2 µM)",67.3,214,164,37.3,210,47,59.9,59,206,55.6,268,113,146,87.4,97.5
"O=C(CCCCCCC(=O)Nc1ccccc1)NO [vorinostat] + COc1ccc(COc2ccc(Cc3cnc(N)nc3N)cc2OC)cc1 [GW2580] (first compound 0.08 µM, partner dose 1 µM)",115,49.9,61,65.5,194,16.7,29.1,76.1,57.1,46.6,71.8,82,64.8,72.9,72.2
"NC(=O)Nc1cc(-c2cccc(F)c2)sc1C(=O)N[C@H]1CCCNC1 + O=c1cc(-c2cccc3c2Sc2ccccc2S3)oc(N2CCOCC2)c1 [KU55933] (first compound 0.02 µM, partner dose 1 µM)",99.5,25.5,96.2,58.9,67.3,44.8,61.3,57.9,182,124,116,94.3,124,198,37
"O=C(CCCCCCC(=O)Nc1ccccc1)NO [vorinostat] + COc1ccc2c(c1)CCC1C2CCC2(C)C(NCCCCCCN3C(=O)C=CC3=O)CCC12 [U73122] (first compound 0.08 µM, partner dose 0.4 µM)",146,105,106,32.2,216,139,109,154,182,142,76.6,104,161,75.2,138
"O=C(CCCCCCC(=O)Nc1ccccc1)NO [vorinostat] + Cn1cc(/C=C2\C(=O)Nc3cccnc32)c2ccccc21 [GW441756] (first compound 0.08 µM, partner dose 0.4 µM)",51.4,51.4,86.3,38.2,273,19.8,64.7,70.2,40.8,43.3,63.7,95.7,69.2,89.4,59.4
"OCCn1cc(-c2cnc3nnn(Cc4ccc5ncccc5c4)c3n2)cn1 + c1cc(-c2cnn3cc(-c4ccc(OCCN5CCCCC5)cc4)cnc23)ccn1 [Dorsomorphin] (first compound 1 µM, partner dose 0.4 µM)",118,47.3,90.6,93.6,185,48.8,76.2,112,72.4,73.3,93.3,110,126,75.7,54
"Cn1cncc1[C@@](N)(c1ccc(Cl)cc1)c1ccc2c(c1)c(-c1cccc(Cl)c1)cc(=O)n2C [tipifarnib] + COC(=O)c1sccc1S(=O)(=O)Nc1ccc(Nc2ccccc2)cc1OC [GSK0660] (first compound 0.01 µM, partner dose 1 µM)",176,111,111,41.7,126,123,95.5,136,71.8,157,127,90.6,39.2,84.2,35.6
"NC(=O)Nc1cc(-c2cccc(F)c2)sc1C(=O)N[C@H]1CCCNC1 + COc1ccc(COc2ccc(Cc3cnc(N)nc3N)cc2OC)cc1 [GW2580] (first compound 0.02 µM, partner dose 1 µM)",177,77.3,86.5,100,159,55.3,75.3,184,158,72,123,110,86.3,155,129
"Cn1c(Nc2ccc(C(F)(F)F)cc2)nc2cc(Oc3ccnc(-c4ncc(C(F)(F)F)[nH]4)c3)ccc21 + CCN(CC)CCCCNc1ncc2cc(-c3cc(OC)cc(OC)c3)c(NC(=O)NC(C)(C)C)nc2n1 [PD173074] (first compound 0.08 µM, partner dose 0.1 µM)",110,79.4,59.7,57.4,239,44.4,58.6,314,53.7,482,126,138,110,141,153
"C#Cc1cccc(Nc2ncnc3cc(OCCOC)c(OCCOC)cc23)c1 [erlotinib] + COc1ccc(-c2ccc3c(N4CCOCC4)nc(N4C[C@@H](C)O[C@@H](C)C4)nc3n2)cc1CO [KU0063794] (first compound 0.8 µM, partner dose 0.02 µM)",53.1,131,42.7,156,201,139,29.8,265,89.9,89.8,174,139,80.6,216,51.3
"OCCn1cc(-c2cnc3nnn(Cc4ccc5ncccc5c4)c3n2)cn1 + COc1cc2ncnc(Nc3ccc(Oc4ccccc4)cc3)c2cc1OC [SrcI1] (first compound 1 µM, partner dose 2 µM)",123,138,67.8,66.4,116,115,298,66.9,168,121,90.2,107,62.9,73.1,94
"OCCn1cc(-c2cnc3nnn(Cc4ccc5ncccc5c4)c3n2)cn1 + Oc1nc(-c2ccc(C(F)(F)F)cc2)nc2c1CSCC2 [XAV939] (first compound 1 µM, partner dose 2 µM)",178,39.1,61.1,111,81,18,147,110,22.2,447,371,111,28.4,75.8,557
"COc1cc(Nc2ncc(F)c(Nc3ccc4c(n3)NC(=O)C(C)(C)O4)n2)cc(OC)c1OC [Tamatinib] + O=C1NC(=O)/C(=C/c2ccc(-c3ccc(F)cc3O)o2)S1 [AS252424] (first compound 0.4 µM, partner dose 1 µM)",160,132,265,123,117,44,66.3,324,247,78.4,136,140,95,77.5,66
"O=C(CCCCCCC(=O)Nc1ccccc1)NO [vorinostat] + COc1ccc(-c2ccc3c(N4CCOCC4)nc(N4C[C@@H](C)O[C@@H](C)C4)nc3n2)cc1CO [KU0063794] (first compound 0.08 µM, partner dose 0.02 µM)",32,29.3,46.5,55.6,109,19.7,34.5,269,592,148,53.7,109,52.6,86.1,59

# Some entries already given with just cleaved PARP positive nuclei fraction [7] [%]:
Compound	cleaved PARP positive nuclei fraction [7] [%]
Cn1cncc1[C@@](N)(c1ccc(Cl)cc1)c1ccc2c(c1)c(-c1cccc(Cl)c1)cc(=O)n2C [tipifarnib] + COC(=O)c1sccc1S(=O)(=O)Nc1ccc(Nc2ccccc2)cc1OC [GSK0660] (first compound 0.01 µM, partner dose 1 µM)	95.5
NC(=O)Nc1cc(-c2cccc(F)c2)sc1C(=O)N[C@H]1CCCNC1 + COc1ccc(COc2ccc(Cc3cnc(N)nc3N)cc2OC)cc1 [GW2580] (first compound 0.02 µM, partner dose 1 µM)	75.3
